# Source: PubChem BioAssay AID1159584 (Peter MacCallum Cancer Centre, 2016)
# Assay: 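Genes that CDH1-null MCF10A cells selectively depend on to survive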 (primary screen)
# Cells: human MCF10A breast epithelial cells, parental and CDH1-null
# Reagent: siRNA against human genes
# Read-out: 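Cell viability by CellTiter-Glo ATP luminescence, each line scaled to the mean of mock wells across plates, then CDH1-null over parental ratio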
# Direction: CDH1-null / parental viability ratio: higher = CDH1-null cells survive relatively better than parental; CDH1-null viability vs mock: higher = more viable CDH1-null cells
# Shown is one part, drawn at random, of about 18,000 deposited reagents. The numbers tell different reagents against one gene apart. Further read-outs or replicates are left out here. The record does not give: the amount of reagent, the time to read-out.
gene knocked down,reagent no.,CDH1-null / parental viability ratio,CDH1-null viability vs mock (fraction of mock)
TPRG1 (tumor protein p63 regulated 1),1,0.98,0.96
SETX (senataxin),1,1,0.68
EIF3L (eukaryotic translation initiation factor 3 subunit L),1,0.94,0.66
SLC36A2,1,1,0.94
MMRN2 (multimerin 2),1,1.03,0.8
NELFA (negative elongation factor complex member A),1,1,0.94
DMD (dystrophin),1,1.05,0.8
TNFRSF17 (TNF receptor superfamily member 17),1,1.21,0.69
SHLD2 (shieldin complex subunit 2),1,1.31,0.92
RHD (Rh blood group D antigen),1,0.92,0.93
ENPP4 (ectonucleotide pyrophosphatase/phosphodiesterase 4),1,0.96,0.46
IL15 (interleukin 15),1,1.16,1.17
DMKN (dermokine),1,1.03,0.33
OR2T35,1,1.04,1.12
PRPF39 (pre-mRNA processing factor 39),1,1.09,0.83
CYRIB (CYFIP related Rac1 interactor B),1,0.79,0.62
ZMYND8 (zinc finger MYND-type containing 8),1,0.86,0.72
PKD2L1,1,1.16,0.79
MEOX1 (mesenchyme homeobox 1),1,1.18,1.36
SDC3 (syndecan 3),1,0.84,0.8
PRDM9 (PR/SET domain 9),1,1.06,0.92
SACK1B (scaffolding CK1 anchoring protein B),1,1.32,1.06
ZNF518B (zinc finger protein 518B),1,0.86,0.72
AKAP8L (A-kinase anchoring protein 8 like),1,1.1,0.77
CCDC142 (coiled-coil domain containing 142),1,0.64,0.34
RFPL1 (ret finger protein like 1),1,0.71,0.8
LINC00518 (long independently transcribed non-coding RNA 518),1,0.96,0.51
COPA (coat protein complex I subunit alpha),1,1.15,0.23
TBXAS1 (thromboxane A synthase 1),1,0.93,0.64
GFM1 (G elongation factor mitochondrial 1),1,1.02,0.94
GNG8 (G protein subunit gamma 8),1,0.9,0.52

Quoted from the entries so far for reference:
gene knocked down,reagent no.,CDH1-null / parental viability ratio,CDH1-null viability vs mock (fraction of mock)
OR2T35,1,1.04,1.12
PRPF39 (pre-mRNA processing factor 39),1,1.09,0.83
CYRIB (CYFIP related Rac1 interactor B),1,0.79,0.62
ZMYND8 (zinc finger MYND-type containing 8),1,0.86,0.72
PKD2L1,1,1.16,0.79
MEOX1 (mesenchyme homeobox 1),1,1.18,1.36
SDC3 (syndecan 3),1,0.84,0.8

Additional records follow:
gene knocked down,reagent no.,CDH1-null / parental viability ratio,CDH1-null viability vs mock (fraction of mock)
ZNF543 (zinc finger protein 543),1,0.91,0.82
SVEP1,1,0.84,0.77
GOSR2 (golgi SNAP receptor complex member 2),1,0.86,0.76
LINC02145 (long independently transcribed non-coding RNA 2145),1,0.89,0.73
KHDRBS2,1,1.27,0.76
"ALDOA (aldolase, fructose-bisphosphate A)",1,0.79,0.49
ZG16B (zymogen granule protein 16B),1,1.3,0.52
AMD1 (adenosylmethionine decarboxylase 1),1,1.29,0.88
SLC17A5,1,0.98,0.96
IFNA13 (interferon alpha 13),1,1.39,1.25
MTFMT (mitochondrial methionyl-tRNA formyltransferase),1,1.09,1.02
BOP1 (BOP1 ribosomal biogenesis factor),1,0.91,0.64
HERC6,1,1.48,0.77
PPIH (peptidylprolyl isomerase H),1,1.02,1
LCAT (lecithin-cholesterol acyltransferase),1,1.11,0.91
"SEC16B (SEC16 homolog B, endoplasmic reticulum export factor)",1,0.86,0.83
CDK6 (cyclin dependent kinase 6),1,0.83,0.67
PLEKHG6 (pleckstrin homology and RhoGEF domain containing G6),1,0.76,0.68
COL5A2 (collagen type V alpha 2 chain),1,1.05,0.82
ATL1 (atlastin GTPase 1),1,0.87,0.71
RBM28 (RNA binding motif protein 28),1,0.7,0.42
CXCL5 (C-X-C motif chemokine ligand 5),1,1.17,0.9
SEMA4D (semaphorin 4D),1,0.9,0.83
SEMA4D (semaphorin 4D),2,0.86,0.57
CLXN (calaxin),1,1.32,0.75
DHCR7 (7-dehydrocholesterol reductase),1,0.75,0.56
BNIPL (BCL2 interacting protein like),1,0.9,0.74
CYB5D2 (cytochrome b5 domain containing 2),1,1.2,0.98
"ALDOB (aldolase, fructose-bisphosphate B)",1,0.95,0.76
SMIM12 (small integral membrane protein 12),1,0.98,0.92
TPI1 (triosephosphate isomerase 1),1,1,1.06
UBE2Q1 (ubiquitin conjugating enzyme E2 Q1),1,0.96,0.7
ZSCAN18 (zinc finger and SCAN domain containing 18),1,0.98,0.87
ABI2 (abl interactor 2),1,0.89,0.78
"DBI (diazepam binding inhibitor, acyl-CoA binding protein)",1,0.86,0.5
LRTM1 (leucine rich repeat transmembrane protein 1),1,1.03,1.13
AXDND1 (axonemal dynein light chain domain containing 1),1,0.93,1.02
